# Laboratory results as given in publication PMC4590430.
# Results are given in words; binding and its absence hold for the method and conditions named. Some results given as binding are weak or reduced against the parent protein; the word gives no strength.
# T1: S. cerevisiae Apc5 (S. cerevisiae) (UniProt Q08683)
# T1 sequence: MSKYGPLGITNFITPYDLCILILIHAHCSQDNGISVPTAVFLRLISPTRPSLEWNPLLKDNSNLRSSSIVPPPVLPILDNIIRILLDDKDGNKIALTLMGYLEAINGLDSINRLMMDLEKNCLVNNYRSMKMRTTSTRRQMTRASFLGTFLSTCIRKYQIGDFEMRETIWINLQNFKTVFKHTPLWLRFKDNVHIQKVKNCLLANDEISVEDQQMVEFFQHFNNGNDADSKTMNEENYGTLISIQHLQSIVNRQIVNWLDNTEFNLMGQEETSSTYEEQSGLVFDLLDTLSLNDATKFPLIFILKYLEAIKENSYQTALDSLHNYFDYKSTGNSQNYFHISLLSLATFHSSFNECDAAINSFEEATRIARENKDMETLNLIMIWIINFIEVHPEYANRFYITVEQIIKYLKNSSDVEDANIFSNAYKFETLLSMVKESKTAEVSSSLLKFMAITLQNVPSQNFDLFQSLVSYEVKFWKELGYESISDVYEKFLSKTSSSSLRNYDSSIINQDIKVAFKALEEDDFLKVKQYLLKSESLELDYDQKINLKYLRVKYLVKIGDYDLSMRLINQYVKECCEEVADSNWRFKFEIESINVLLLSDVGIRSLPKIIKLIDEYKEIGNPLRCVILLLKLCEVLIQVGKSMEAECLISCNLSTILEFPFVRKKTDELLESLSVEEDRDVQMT
# T2: S. pombe Apc5 (S. pombe) (UniProt Q9P4W7)
# T2 sequence: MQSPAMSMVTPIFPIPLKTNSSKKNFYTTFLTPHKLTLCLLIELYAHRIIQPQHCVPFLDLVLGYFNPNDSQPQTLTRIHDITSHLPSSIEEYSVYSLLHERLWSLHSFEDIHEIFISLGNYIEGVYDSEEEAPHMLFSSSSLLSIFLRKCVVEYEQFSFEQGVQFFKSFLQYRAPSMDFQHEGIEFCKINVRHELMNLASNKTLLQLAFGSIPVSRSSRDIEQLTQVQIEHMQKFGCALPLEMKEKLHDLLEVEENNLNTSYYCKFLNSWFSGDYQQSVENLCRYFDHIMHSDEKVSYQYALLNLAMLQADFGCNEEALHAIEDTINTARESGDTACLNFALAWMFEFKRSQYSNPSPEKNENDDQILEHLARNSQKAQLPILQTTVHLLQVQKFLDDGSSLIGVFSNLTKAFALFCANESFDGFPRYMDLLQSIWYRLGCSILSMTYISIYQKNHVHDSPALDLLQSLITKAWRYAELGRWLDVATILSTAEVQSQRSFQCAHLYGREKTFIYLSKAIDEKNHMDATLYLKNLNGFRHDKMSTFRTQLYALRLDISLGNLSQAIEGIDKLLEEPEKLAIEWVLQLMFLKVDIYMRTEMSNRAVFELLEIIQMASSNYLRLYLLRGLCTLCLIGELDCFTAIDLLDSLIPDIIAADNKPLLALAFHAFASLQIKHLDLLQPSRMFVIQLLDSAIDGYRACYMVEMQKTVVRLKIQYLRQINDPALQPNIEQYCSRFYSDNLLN
# What was measured:
# [1] = biological target: T1, S. cerevisiae Apc5 (S. cerevisiae); experiment: co-expression and co-purification; Apc4 expressed together with Apc5 and Apc15 (human, X. laevis, S. cerevisiae, S. pombe); an Apc4–Apc5 complex purified
# S. pombe Apc5 (S. pombe) = biological target: T2, S. pombe Apc5 (S. pombe); experiment: as above
binding [1],binding (S. pombe Apc5 (S. pombe)),Binder
binds,,"S. cerevisiae Apc4 (protein, UniProt Q04601 1-652) MSSPINDYFIDYNPLFPIFATRIAKGLAIYRVSDHARLAVIPIRNINLVANYDWDTTTGKFLSIFFKDGTIRIHDIFKDGRLVSFLRIPSTKISKGIWDRIPLRYEPNNRDFACNIIDDLPKLIRFVKDSKRINIVPYTQPNSLWRGPDEDDLDSNEKLDVHVVFNEGNDKITVFFNGDYAVFLSVDNIENENSLKSIIKVQDGFYQCFYEDGTVQTLNLGPLLQSKSSVNLLNYIMVIKELIGYMLTHLEFINRELATPYLDFVKRLCDEAYGYGKLKSELEALFLLGEISCDLEDWLCNSVGEKNFKRWKYLGCEAYQKTVQILTLIFVPACERIIIYVEKLRAILQAFSIQNKLSYTSDLTAVEVLLKSSQKLLTMTLNSIIGLGRDETLFEKFFIWFNDRLHEALDEDYKLKFQFEDDLYFGYDLLSYFDRILSKKGTEPSSIIDVKLYRDLINSMSDMEKDIAQSNVNSHIQQHILVDLKTDVFAQKYPSSQINLLDAIKLPKHNYIVYLIQVTKHNSAQEPFSEENKKKLYIGTLKDENLGIISKESSVKIPALFKSYRLSSTRFVPNRVHSLLRDIGLSDSNYHSSHVTDYRGENYENEEDDGTIAIPAYIRENRENDDFIACTAKVSVDGRSASLVFPKEKQNV"
,binds,"S. pombe Apc4 (protein, UniProt O42839 1-719) MVSKSFKYPKKHKFEWINETNRVERVGSGLKRVILCPSMELIAILTCSNHLICCRSNSQRIWDVDFHDLEATELCWNHDGNLIVVGFKNGELKIIDSSTGHLVEQRPASRDLAVLMITWAMQETIVNEKRNDFLFDATAYMPLLGTLPSSAKEERIFSSKAIAQFFEPRKREGENNKKVELLSILDERGIRYINMFSSYKIGESDSLKSALNLGVPISHSITNDLAYHVLICKGGTNISLKTLYMPLLKNDLGSIVDIATMSTRMQHLVRYLEEVLNAMYEEFDNVFKSEASFIKTFDALVSKYSDTTFFSLQLELYQFIMNGIPSDLLKEWINERVGDRVLKNWERAMVNSYTSLIIFCQEFVIPACERLTVLLSSARGKSIWGHMKGNTLLDAKLVEDCLATLGYLQNNVFSFLNCLFEEKKYMKHFISWLNYAIVEFNTSEPSSIPPQEIIEHINETVIYIRHSLFRSKLTSYFMGTKPLQLRDPDYYSLKDFANQDDSNSVDDFVSFKTLKESLRDSFNVIFSYPSLTCQKQWLKTGDLVLFEGTDWNVSSLIPKSCNEKNQLFSLFFRKDTPNIFLIISQLMENTMLPVSGCHFGLDYAELLGSSLLDFQPATVLDMKLLNGSSILILGKLKEKCFLCEICLADVPLTFFEHQQKNSYLDAISHLPFIPLNSCLWLHEFEKDFLPSTLEYALSENSDYGVLISRESSRYRLFSF"
